From the supplement of paper PMC12024529
Counter-ions that a name gives are not always drawn. Some of the results follow. Plates or batches differ in their baseline, so values are only roughly comparable.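 The cells are HEK293 lines stably expressing B-domain-deleted factor VIII fused to Gaussia luciferase, either wild type or a misfolding-prone missense mutant. Each score is mean luminescence from triplicate wells minus the DMSO mean, divided by the DMSO standard deviation; a score of 2 or more counts as a hit, and low scores may reflect lower secretion or poorer cell viability.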

Assays:
HEK293 WT BDD-FVIII-Gluc = test: secreted FVIII-Gluc luciferase Z-score vs DMSO control; higher = more FVIII-Gluc secretion; conditions: 5 µM; 24 h
[1] = system: HEK293 p.N1941S BDD-FVIII-Gluc; test: as above; conditions: 5 µM; 24 h

Row | SMILES | secreted FVIII-Gluc luciferase Z-score (HEK293 WT BDD-FVIII-Gluc) | secreted FVIII-Gluc luciferase Z-score [1]
1 | Cc1onc(-c2ccccc2Cl)c1C(=O)N[C@@H]1C(=O)N2[C@@H]1SC(C)(C)[C@@H]2C(=O)O [Cloxacillin sodium (Cloxacap)] | inactive: 1.43 | inactive: -0.818
2 | CN(C)C(=O)C(CCN1CCC(O)(c2ccc(Cl)cc2)CC1)(c1ccccc1)c1ccccc1 [Loperamide hydrochloride] | inactive: -1.48 | inactive: -2.33
3 | O=C(O)c1cc(-c2ccccc2)nc2ccccc12 [Cinchophen] | inactive: 0.616 | inactive: 0.664
4 | CC[C@H](C)C(=O)O[C@H]1CCC=C2C=C[C@H](C)[C@H](CC[C@@H]3C[C@@H](O)CC(=O)O3)[C@H]21 [Mevastatin] | inactive: -1.46 | inactive: -0.018
5 | CCCC(CCC)C(=O)O [Valproic acid sodium salt (Sodium valproate)] | inactive: 0.143 | active: 2.78
6 | [I-].[K+] [Potassium iodide] | inactive: -1.09 | inactive: -0.37
7 | CC(=O)N1CCN(c2ccc(OCC3COC(Cn4ccnc4)(c4ccc(Cl)cc4Cl)O3)cc2)CC1 (stereo not drawn) [Ketoconazole] | inactive: -3.94 | inactive: -2.33
8 | CCCc1cc(C(N)=S)ccn1 [Protionamide (Prothionamide)] | inactive: -1.66 | inactive: 0.0069
9 | Cc1c(Cl)cccc1Nc1ccccc1C(=O)O [Tolfenamic acid] | inactive: -0.609 | inactive: 0.0941
10 | CCC(C)n1ncn(-c2ccc(N3CCN(c4ccc(OCC5COC(Cn6cncn6)(c6ccc(Cl)cc6Cl)O5)cc4)CC3)cc2)c1=O (stereo not drawn) [Itraconazole (Sporanox)] | inactive: -3.71 | inactive: -6.31
11 | COC(=O)C1=C(C)NC(C)=C(C(=O)OC2CCCN(Cc3ccccc3)C2)C1c1cccc([N+](=O)[O-])c1 (stereo not drawn) [Benidipine hydrochloride] | inactive: -1.13 | inactive: -0.597
12 | C[N+](C)(C)CCO.[Cl-] [Choline Chloride] | inactive: -1.67 | inactive: 1.38
13 | CC1=C(C(=O)O)N2C(=O)[C@@H](NC(=O)[C@H](N)c3ccccc3)[C@H]2SC1 [Cephalexin (Cefalexin)] | inactive: -2.97 | inactive: 0.231
14 | CC(C)(Oc1ccc(Cl)cc1)C(=O)O [Clofibric acid] | inactive: 0.473 | active: 2.23
15 | COc1ccc2cc(CCC(C)=O)ccc2c1 [Nabumetone] | inactive: -1.05 | inactive: -0.901
16 | CS(=O)(=O)OCCCCOS(C)(=O)=O [Busulfan (Myleran, Busulfex)] | inactive: -1.05 | inactive: 0.863
17 | CO[C@@H]1[C@@H](OC(N)=O)[C@@H](O)[C@H](Oc2ccc3c(O)c(NC(=O)c4ccc(O)c(CC=C(C)C)c4)c(=O)oc3c2C)OC1(C)C [Novobiocin sodium (Albamycin)] | inactive: -0.464 | inactive: 0.0516
18 | Cc1ccc(NC(=O)c2ccc(CN3CCN(C)CC3)cc2)cc1Nc1nc(-c2cccnc2)cs1 [Masitinib (AB1010)] | inactive: -2.87 | inactive: -8.43
19 | CC(C)CN(C[C@@H](O)[C@H](Cc1ccccc1)NC(=O)O[C@H]1CO[C@H]2OCC[C@H]21)S(=O)(=O)c1ccc(N)cc1 [Darunavir Ethanolate (Prezista)] | inactive: -2.35 | inactive: 0.0529
20 | OCC(CO)N[C@H]1C[C@](O)(CO)[C@@H](O)[C@H](O)[C@H]1O [Voglibose] | active: 10.8 | active: 3.34
21 | CCCCC(=O)N(Cc1ccc(-c2ccccc2-c2nnn[nH]2)cc1)[C@H](C(=O)O)C(C)C [Valsartan (Diovan)] | inactive: -1.51 | inactive: 1.42
22 | CC(C)Cc1ccc(C(C)C(=O)O)cc1 (stereo not drawn) [Ibuprofen (Advil)] | active: 2.54 | inactive: 0.342
23 | CN(C)CCCN1c2ccccc2Sc2ccc(Cl)cc21 [Chlorpromazine (Sonazine)] | inactive: 1.04 | inactive: -1.86
24 | O=C(Nc1ccccc1)OCC(CN1CCCCC1)OC(=O)Nc1ccccc1 (stereo not drawn) [Diperodon HCl] | inactive: -0.754 | inactive: 0.928
25 | COc1cc(NC(C)CCCN)c2ncccc2c1 (stereo not drawn) [Primaquine Diphosphate] | inactive: -1.45 | inactive: -0.794
26 | CCOC(=O)c1c(C)n(C)c2ccc(O)cc12 [Mecarbinate] | inactive: 1.62 | inactive: 0.561
27 | CCOC(=O)CCC(=O)O[C@H]1[C@H](O[C@@H]2[C@@H](C)[C@H](O[C@H]3C[C@@](C)(OC)[C@@H](O)[C@H](C)O3)[C@@H](C)C(=O)O[C@H](CC)[C@@](C)(O)[C@H](O)[C@@H](C)C(=O)[C@H](C)C[C@@]2(C)O)O[C@H](C)C[C@@H]1N(C)C [Erythromycin Ethylsuccinate] | inactive: -1.21 | inactive: -0.959

Numbers 2 through 3, reprinted for reference:
Row | SMILES | secreted FVIII-Gluc luciferase Z-score (HEK293 WT BDD-FVIII-Gluc) | secreted FVIII-Gluc luciferase Z-score [1]
2 | CN(C)C(=O)C(CCN1CCC(O)(c2ccc(Cl)cc2)CC1)(c1ccccc1)c1ccccc1 [Loperamide hydrochloride] | inactive: -1.48 | inactive: -2.33
3 | O=C(O)c1cc(-c2ccccc2)nc2ccccc12 [Cinchophen] | inactive: 0.616 | inactive: 0.664

Following part:

Row | SMILES | secreted FVIII-Gluc luciferase Z-score (HEK293 WT BDD-FVIII-Gluc) | secreted FVIII-Gluc luciferase Z-score [1]
28 | COc1cc(C(=O)NS(=O)(=O)c2ccccc2C)ccc1Cc1cn(C)c2ccc(NC(=O)OC3CCCC3)cc12 [Zafirlukast (Accolate)] | inactive: -1.59 | inactive: 0.813
29 | COCCCOc1cc(C[C@@H](C[C@H](N)[C@@H](O)C[C@H](C(=O)NCC(C)(C)C(N)=O)C(C)C)C(C)C)ccc1OC [Aliskiren hemifumarate] | inactive: -0.699 | inactive: 0.456
30 | CN(CCOc1ccc(NS(C)(=O)=O)cc1)CCc1ccc(NS(C)(=O)=O)cc1 [Dofetilide (Tikosyn)] | inactive: 0.533 | inactive: 0.475
31 | CCCCCCNC(=O)n1cc(F)c(=O)[nH]c1=O [Carmofur] | inactive: -2.57 | inactive: -0.859
32 | C[C@@]12C[C@@]3(O)O[C@@H](O1)[C@]1(COC(=O)c4ccccc4)[C@H]3C[C@@]12O[C@@H]1O[C@H](CO)[C@@H](O)[C@H](O)[C@H]1O [Paeoniflorin] | inactive: 0.158 | inactive: -1.36
33 | CCCCCCCCOc1ccccc1C(=O)Nc1ccc(C(=O)OCC[N+](C)(CC)CC)cc1 [Otilonium Bromide] | inactive: -0.301 | inactive: 0.0858
34 | C[C@]12CC[C@@H]3c4ccc(O)cc4C[C@@H](CCCCCCCCC[S+]([O-])CCCC(F)(F)C(F)(F)F)[C@H]3[C@@H]1CC[C@@H]2O (stereo partly drawn) [Fulvestrant (Faslodex)] | inactive: 0.221 | inactive: -2
35 | CCC(=O)O[C@]1(C(=O)SCF)[C@H](C)C[C@H]2[C@@H]3C[C@H](F)C4=CC(=O)C=C[C@]4(C)[C@@]3(F)[C@@H](O)C[C@@]21C [Fluticasone propionate (Flonase, Veramyst)] | active: 8.24 | active: 8.59
36 | CCN(CC)CC#CCOC(=O)C(O)(c1ccccc1)C1CCCCC1 (stereo not drawn) [Oxybutynin (Ditropan)] | inactive: -1.67 | inactive: -0.706
37 | CC(S)C(=O)NCC(=O)O (stereo not drawn) [Tiopronin (Thiola)] | inactive: -0.256 | inactive: -0.15
38 | [O-][n+]1cccc(CO)c1 [Mepiroxol] | inactive: 0.909 | inactive: 1.17
39 | CCCN(CCC)CCc1cccc2c1CC(=O)N2 [Ropinirole HCl] | inactive: -1.11 | inactive: 0.694
40 | CNCC[C@@H](Oc1ccccc1C)c1ccccc1 [Atomoxetine HCl] | inactive: -0.944 | inactive: 0.307
41 | O=C(NCCO[N+](=O)[O-])c1cccnc1 [Nicorandil (Ikorel)] | inactive: -1.89 | inactive: -3.61
42 | COC(=O)N/N=C/c1c[n+]([O-])c2ccccc2[n+]1[O-] [Carbadox] | inactive: -1.72 | inactive: 1.32
43 | Cc1ccc2c(Cl)cc(Cl)c(O)c2n1 [Chlorquinaldol] | inactive: -1.6 | inactive: -0.574
44 | CCOC(=O)C1=C(COCCN)NC(C)=C(C(=O)OC)C1c1ccccc1Cl (stereo not drawn) [Amlodipine (Norvasc)] | inactive: 0.199 | inactive: 0.0365
45 | Cc1cn([C@H]2C=C[C@@H](CO)O2)c(=O)[nH]c1=O [Stavudine] | inactive: -0.716 | inactive: -1.97
46 | CN(C)CCC(c1ccc(Br)cc1)c1ccccn1 (stereo not drawn) [Brompheniramine] | inactive: -1.05 | inactive: -1.54
47 | COc1cc2nccc(Oc3ccc(NC(=O)C4(C(=O)Nc5ccc(F)cc5)CC4)cc3)c2cc1OC [XL-184 (Cabozantinib)] | inactive: -4.31 | inactive: -11.5
48 | Cc1ncc(CO)c(CO)c1O [Pyridoxine hydrochloride] | inactive: 0.0177 | inactive: -0.484
49 | O=C(O)c1cccnc1 [Niacin (Nicotinic acid)] | inactive: 0.208 | inactive: -0.028
50 | O=NN(CCCl)C(=O)NC1CCCCC1 [Lomustine (CeeNU)] | inactive: -0.638 | inactive: -0.586
51 | NC(=O)c1ncn([C@@H]2O[C@H](CO)[C@@H](O)[C@H]2O)n1 [Ribavirin (Copegus)] | inactive: -0.159 | inactive: -1.62
52 | Cc1nc(-c2ccc(OCC(C)C)c(C#N)c2)sc1C(=O)O [Febuxostat (Uloric)] | inactive: -3.02 | inactive: 0.112
53 | N=C(N)N [Guanidine HCl] | inactive: -0.194 | inactive: 0.655
54 | CC(C)[C@H](N)C(=O)OCC(CO)OCn1cnc2c(=O)nc(N)[nH]c21 (stereo partly drawn) [valganciclovir hydrochloride] | inactive: -0.698 | inactive: 0.0036
